The values below come from article doi:10.1101/2024.11.01.621520.

Protein sequences, listed by entry. Tags and fused reporters are not part of them. Residues count along the entry.
UniProt P35222: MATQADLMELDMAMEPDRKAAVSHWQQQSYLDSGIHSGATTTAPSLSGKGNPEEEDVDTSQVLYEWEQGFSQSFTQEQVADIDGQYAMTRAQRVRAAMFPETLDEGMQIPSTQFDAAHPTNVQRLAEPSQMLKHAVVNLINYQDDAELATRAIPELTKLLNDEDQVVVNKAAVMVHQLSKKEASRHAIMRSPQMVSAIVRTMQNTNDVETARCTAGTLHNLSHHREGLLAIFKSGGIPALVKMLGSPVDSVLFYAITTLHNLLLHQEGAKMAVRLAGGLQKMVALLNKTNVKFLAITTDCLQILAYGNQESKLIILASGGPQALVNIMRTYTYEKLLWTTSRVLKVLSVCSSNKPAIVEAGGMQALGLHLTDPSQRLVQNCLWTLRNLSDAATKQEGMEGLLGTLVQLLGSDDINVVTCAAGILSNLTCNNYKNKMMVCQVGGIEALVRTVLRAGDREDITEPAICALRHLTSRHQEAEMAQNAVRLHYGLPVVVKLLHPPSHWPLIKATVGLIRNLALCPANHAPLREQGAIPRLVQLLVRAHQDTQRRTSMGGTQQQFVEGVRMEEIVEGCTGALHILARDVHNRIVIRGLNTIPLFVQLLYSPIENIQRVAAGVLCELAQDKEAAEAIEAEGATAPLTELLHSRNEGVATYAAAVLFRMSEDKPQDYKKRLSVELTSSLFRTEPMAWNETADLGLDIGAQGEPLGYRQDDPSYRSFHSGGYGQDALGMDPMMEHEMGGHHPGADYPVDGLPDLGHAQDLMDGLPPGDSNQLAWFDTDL
UniProt Q13283: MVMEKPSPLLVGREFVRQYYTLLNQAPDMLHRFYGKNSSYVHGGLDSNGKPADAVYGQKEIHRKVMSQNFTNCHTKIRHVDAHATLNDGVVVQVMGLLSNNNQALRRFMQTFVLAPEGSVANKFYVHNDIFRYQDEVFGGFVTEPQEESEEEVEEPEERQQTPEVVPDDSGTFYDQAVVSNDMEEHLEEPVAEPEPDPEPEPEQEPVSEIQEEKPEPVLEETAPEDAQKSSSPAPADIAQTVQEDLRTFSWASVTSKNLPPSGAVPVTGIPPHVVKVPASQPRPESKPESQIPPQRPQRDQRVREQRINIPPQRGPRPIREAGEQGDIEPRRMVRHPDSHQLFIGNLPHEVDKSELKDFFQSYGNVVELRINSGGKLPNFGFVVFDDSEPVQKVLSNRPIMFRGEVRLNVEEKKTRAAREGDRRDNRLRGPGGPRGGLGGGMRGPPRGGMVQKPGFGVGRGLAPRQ
UniProt P24593, residues 21-272: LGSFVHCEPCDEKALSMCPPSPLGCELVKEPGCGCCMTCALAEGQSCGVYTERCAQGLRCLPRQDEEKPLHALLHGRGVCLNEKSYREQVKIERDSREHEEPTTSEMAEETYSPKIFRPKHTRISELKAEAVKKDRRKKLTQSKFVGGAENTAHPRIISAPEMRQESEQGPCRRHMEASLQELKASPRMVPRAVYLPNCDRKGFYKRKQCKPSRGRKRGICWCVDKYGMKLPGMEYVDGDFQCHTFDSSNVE

In test [1] the target is androgen receptor (human (endogenous in MCF7Aro-LetR and MCF7)) (UniProt P10275). In words: affinity purification with mass spectrometry.
For test [2], the target named is T1, androgen receptor (human (endogenous in MCF7Aro-LetR and MCF7)), P10275.
T1 chain: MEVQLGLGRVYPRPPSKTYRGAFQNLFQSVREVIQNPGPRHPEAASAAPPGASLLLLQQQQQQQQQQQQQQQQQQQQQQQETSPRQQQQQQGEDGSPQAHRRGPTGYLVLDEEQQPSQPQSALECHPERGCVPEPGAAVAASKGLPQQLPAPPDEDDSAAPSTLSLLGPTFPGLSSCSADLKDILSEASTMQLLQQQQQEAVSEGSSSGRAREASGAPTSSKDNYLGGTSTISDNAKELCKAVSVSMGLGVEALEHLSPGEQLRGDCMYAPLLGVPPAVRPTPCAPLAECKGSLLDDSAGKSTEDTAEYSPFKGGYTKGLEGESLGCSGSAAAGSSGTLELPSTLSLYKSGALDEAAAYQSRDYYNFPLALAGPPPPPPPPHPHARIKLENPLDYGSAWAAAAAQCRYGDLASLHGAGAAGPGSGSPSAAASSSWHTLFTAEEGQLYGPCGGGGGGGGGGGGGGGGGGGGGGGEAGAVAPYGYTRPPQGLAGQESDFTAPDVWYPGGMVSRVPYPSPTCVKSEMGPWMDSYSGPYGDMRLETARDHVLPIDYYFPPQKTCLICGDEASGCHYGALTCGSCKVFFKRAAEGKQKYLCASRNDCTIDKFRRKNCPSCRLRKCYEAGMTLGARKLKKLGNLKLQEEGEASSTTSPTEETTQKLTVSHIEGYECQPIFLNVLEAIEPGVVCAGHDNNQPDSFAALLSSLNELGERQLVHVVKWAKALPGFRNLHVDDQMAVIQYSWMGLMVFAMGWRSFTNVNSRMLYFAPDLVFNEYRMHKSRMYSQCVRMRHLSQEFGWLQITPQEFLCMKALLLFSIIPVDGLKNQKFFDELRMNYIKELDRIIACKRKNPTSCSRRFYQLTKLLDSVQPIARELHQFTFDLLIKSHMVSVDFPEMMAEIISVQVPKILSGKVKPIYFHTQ
In words: affinity purification with mass spectrometry. The note with it: remark: other sources report otherwise.

No constants are given. Whether binding was seen depends on the method and setting. In cells and extracts the contact can be indirect. These calls come from enrichment with a bait or labelling near it, and not all partners need be listed.

On to “Catenin beta-1 (from UniProt P35222 1-781)”, for which the binding entry in test [1] is “binds”.

G3BP1 (from UniProt Q13283 1-466): the binding entry in test [1] was “binds”.

With “Insulin-like growth factor-binding protein 5 (from UniProt P24593 21-272)”, the binding entry in test [1] is listed as “binds”.

B1: E3 ubiquitin-protein ligase RING 2, Q99496 1-336 (protein)
chain: MSQAVQTNGTQPLSKTWELSLYELQRTPQEAITDGLEIVVSPRSLHSELMCPICLDMLKNTMTTKECLHRFCADCIITALRSGNKECPTCRKKLVSKRSLRPDPNFDALISKIYPSRDEYEAHQERVLARINKHNNQQALSHSIEEGLKIQAMNRLQRGKKQQIENGSGAEDNGDSSHCSNASTHSNQEAGPSNKRTKTSDDSGLELDNNNAAMAIDPVMDGASEIELVFRPHPTLMEKDDSAQTRYIKTSGNATVDHLSKYLAVRLALEELRSKGESNQMNLDTASEKQYTIYIATASGQFTVLNGSFSLELVSEKYWKVNKPMELYYAPTKEHK
Regarding B1, in test [2], the binding result was “binds”.
